Consider one compound from US20030013690A1, “Increasing phosphorus uptake from the gut of dairy cows by supplementing 1alpha-hydroxylated vitamin D compounds” (priority 2001, published 2003).

Data set [1] deals with lactating dairy cows. Put plainly: Dairy cow efficacy trial: feed intake, fecal P excretion, P utilization. The class given is in vivo. The source says: (§1) Eight multiparous lactating dairy cows (about 150 days in milk at start of the experiment) were blocked into two groups according to milk yield. Cows in each block were assigned randomly to four different treatments. The experimental design was a 4×4 Latin Square. Each period was four weeks in length. The first three weeks were used as an adaptation period, and measurements were taken during the last week of each period.
(§2) The four treatments were:
(§3) 1) High P diet. Dietary P at 0.47% (DM basis)
(§4) 2) Diet 1 plus 1-α-OHD3 (75 μg/cow/day)
(§5) 3) Low P diet. Dietary P at 0.35% (DM basis)
(§6) 4) Diet 3 plus 1-α-OHD3 (75 μg/cow/day).
The diets (Table 1) were fed ad libitum as a total mixed ration once daily. The cows were housed in individual tie stalls. Daily feed offered and refused was recorded for individual cows. Feed refusals were restricted to 10% of intake on an as-fed basis. Daily samples of silage and refusals were composited weekly for chemical analysis. Samples of individual feed ingredients were collected once weekly. The dry matter content of feed ingredients was determined by oven drying at 60° C. for 48 hr. Diet formulations were adjusted weekly, if necessary, to account for changes in dry matter content of diet ingredients. All of the feed ingredients were analyzed for chemical composition. Alfalfa and corn silage were analyzed weekly for neutral detergent fiber (NDF), acid detergent fiber (ADF), and crude protein (CP). High moisture ear corn (HMEC), soybean meal (SBM), roasted soybean meal (RSB), and blood meal (BM) were composited every four weeks (one sample per period) and analyzed for CP.
Feed DM digestibility was determined using Yb as an external marker. A Yb solution, prepared by dissolving 2.24 g of YbCl3 (1 g of Yb) in 30 ml of water was sprayed onto 500 g of alfalfa silage (DM basis). The Yb-marked alfalfa silage was mixed into the total mixed ration to give 40 mg of Yb/kg of dietary DM. The total mixed ration labeled with Yb was fed for nine days. During the last two days of Yb feeding (last two days of each period), eight fecal grab samples were collected from each cow at 7 am, 12 noon, 6 pm, and 11 pm on the first day and at 9 am, 3 pm, 9 pm, and 5 am on the second day. Fecal samples were dried at 60° C. for 72 h and ground through a 2-mm Wiley mill screen. Fecal samples were dry-ashed in duplicate (Combs and Satter, 1992). During the last four days of each period, feed refusals for each cow were collected and composited into one sample per cow per period. These samples were dry-ashed in the same way as feces, and analyzed for Yb. Concentrations of Yb (ppm) in feed, feed refusals, and fecal samples were determined by direct current plasma spectroscopy [(Combs and Satter, 1992); Spectra Metrics, Inc., subsidiary of Beckman Instruments, Inc., Andover, Mass.]. The DM digestibility (percentage) for individual cows was calculated as follows: DM digestibility (%)=(1-concentration of Yb in DM consumed/average concentration of Yb in each cow's fecal samples)100. Digestibility of dietary P in different treatments was calculated using P input-output data.

In data set [2] the test system is lactating dairy cows. Put plainly: Dairy cow efficacy trial: milk yield and milk composition. The data set is classed as in vivo.
Excerpt: as §1, §2, §3, §4, §5, §6
Cows were weighed two days in a row before the trial started and two days in a row when it finished. Daily milk weights were recorded. All cows were injected with bovine somatotropin (Posilac®). Blood samples were collected on the last day of weeks 1, 2, and 3 of each period. During week 4, blood samples were obtained on each of the last three days. Blood was obtained 5 hours after feeding from the coccygeal vein or artery in a gel and clot co-activator vacutainer. Samples were centrifuged the next day to separate the serum. Inorganic phosphorus and calcium analyses were performed on serum samples by Marshfield Laboratories, Marshfield, Wis.
During the last two days of each period, six urine samples were collected at 8 am, 4 pm, and 11 pm on the first day and 12 noon, 8 pm, and 6 am on the second day. Urine samples were then composited for phosphorus, calcium, and creatinine analysis. Creatinine was measured to enable an estimate of urine output. Milk samples were obtained during four days of each period. The milk sample was split; one-half was mixed with a preservative, and the other half was refrigerated without a preservative. The samples with preservative were analyzed for milk composition by Wisconsin Ag Source Milk Analysis Laboratory (Menomonie, Wis.), and the samples without preservative were composited according to milk yield and analyzed for mineral composition in the Soil and Plant Analysis Laboratory, Department of Soil Science, University of Wisconsin-Madison.

The mark [3] stands for this setting: treatment 2: high P diet (0.47% P) plus 75 μg/cow/day.
[4] abbreviates: treatment 4: low P diet (0.35% P) plus 75 μg/cow/day.

For the compound `C=C1/C(=C\C=C2/CCC[C@]3(C)[C@@H]([C@H](C)CCCC(C)C)CC[C@@H]23)C[C@@H](O)C[C@@H]1O` [1-α-OHD3, 1α-hydroxyvitamin D3], the “Effect on feed consumption (DM intake)” value in the data set with lactating dairy cows [1] (75 μg daily in the cows' diets) is “not affected”. For the same compound, in the data set on lactating dairy cows [1] (setting [3]), the Dry matter intake is 23.8 kg/day and the “Fecal DM” value amounted to 7.2 kg/day. Also, in the data set on lactating dairy cows [1] (setting [4]), the Dry matter intake turned out to be 24.1 kg/day and the “Fecal DM” value is 7.2 kg/day. Further, in the data set on lactating dairy cows [2] (75 μg/cow/day), the “Effect on milk lactose” value is “increased slightly”, the “Effect on milk potassium” value is listed as “decreased” and the “Effect on milk protein” value was “may have been decreased slightly”. Also, in the data set on lactating dairy cows [2] (setting [3]), the “Milk P” value worked out at 38.2 g/day, the “Milk P (phosphorus)” value turned out to be 1034 ppm, the Milk calcium was 1238 ppm and the Milk lactose is recorded as 4.98%. Also, in the data set on lactating dairy cows [2] (setting [3]), the Milk magnesium worked out at 108 ppm, the Milk potassium is on record as 1595 ppm, the Milk protein is given as 3.28% and the Milkfat turned out to be 3.45%. In the data set on lactating dairy cows [2] (setting [4]), the “Milk P” value is recorded as 38.4 g/day, the “Milk P (phosphorus)” value was 1021 ppm, the Milk calcium was 1248 ppm and the Milk lactose turned out to be 4.93%. In the data set with lactating dairy cows [2] (setting [4]), the Milk magnesium is listed as 105 ppm, the Milk potassium stood at 1559 ppm, the Milk protein is recorded as 3.31% and the Milkfat turned out to be 3.54%.
